A short description of the test: qHTS Assay for Lipid Storage Modulators in Drosophila S3 Cells.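 As to cell number change: cells counted by Cell Tracker Red CMTPX staining in the red channel.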 The note with it: BODIPY lipid droplet fluorescence, 18-24 h; for cell number change: measured here: cell count max response, cells fed with added oleic acid. Summed up: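 Laser-scanning cytometry quantifies lipid droplet accumulation (500–530 nm total intensity; droplet/cell object ratio) in oleic acid-fed (400 uM added) Drosophila S3 cells treated with a concentration series. 20 uM Triacsin C defined 100% inhibition.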
In general terms: Quantitative high-throughput screening tests each substance at several concentrations.

The mark [1] stands for this setting: measured here: lipid fluorescence (Fed channel) AC50, cells fed with added oleic acid.
Where [2] appears, read: measured here: cell number channel AC50, cells fed with added oleic acid.

Structures are written as SMILES. The list shows a part of the results. Further columns of the screen follow, without active or inactive calls. The list favours compounds with an active or inconclusive main result. The note in brackets gives the kind of curve behind each potency; many fits are weak.

We go through 60 compounds from PubChem BioAssay AID2685 (National Center for Advancing Translational Sciences (NCATS), 2010).

As a reminder, the AC50 is the concentration giving half of the maximal activity seen.

Regarding `CCCCCCCNC(=O)C1(CC2CC(c3ccc(Cl)cc3)=NO2)CCN(C(=O)OC(C)(C)C)CC1` (stereo not drawn), the cell number change was 25.7%. The AC50 under setting [1] is 29.1 µM [falling, single point].

Take `N#CCCN1CCN(CCC#N)CC1`: the cell number change is -25.1%. Moreover, under setting [2], the AC50 was 0.0291 µM [falling, full curve, poor fit].

`COc1ccccc1C(=O)N/C(=C\c1cn(S(=O)(=O)N(C)C)c2ccccc12)C(=O)N1CCOCC1`: the half-maximal activity concentration (AC50) under setting [1] is 2.31 µM [rising, full curve].

With `CN(C(=O)c1ccc2c(=O)n3c(nc2c1)CCCCC3)c1cccc(Cl)c1`, the cell number change is -26.2%. Further, under setting [2], the concentration at half-maximal activity (AC50) was 0.231 µM [falling, full curve, poor fit]. As to `COc1ccc(C(=O)N2CCN(c3nnnn3-c3ccccc3)CC2)cc1OC`, the cell number change was -17.5%. For the same compound, the AC50 under setting [1] was 1.64 µM [rising, partial curve]. `COc1ccc(C2=NN(C(=O)CSc3nnc(C)c(=O)n3N)C(c3ccco3)C2)cc1` (stereo not drawn): the AC50 reads like this: under setting [2], 0.411 µM [rising, full curve]; under setting [1], 0.58 µM [rising, full curve]. For the compound `Cc1ccc(NC(=O)N2CCC(C(=O)NCc3ccc(F)cc3)CC2)cc1`, the cell number change was determined as 0.585%. Besides, the AC50 under setting [1] was 1.03 µM [falling, full curve]. On to `O=C(O)c1cc2ccccc2n1-c1ccccc1`, for which the cell number change was -26.6%. Under setting [2], the half-maximal activity concentration (AC50) was 2.59 µM [falling, full curve, poor fit]. Further, the half-maximal activity concentration (AC50) under setting [1] was 18.4 µM [falling, partial curve].

Take `CC(NC(=O)c1ccco1)C(=O)N1CCc2ccccc2C1` (stereo not drawn): the cell number change is 31.8%. Also, the half-maximal activity concentration (AC50) under setting [2] was 14.6 µM [rising, partial curve, poor fit].

In the case of `COc1ccc(OC)c(NC(=O)COC(=O)CNC(=O)c2ccc(OC)c(OC)c2)c1`, the cell number change stood at 41.7%. Under setting [2], the concentration at half-maximal activity (AC50) is 6.51 µM [falling, single point]. The half-maximal activity concentration (AC50) under setting [1] was 6.51 µM [falling, single point]. Take `COc1ccc(-c2coc3c(C)c4oc(=O)c(CC(=O)O)c(C)c4cc23)cc1`: the cell number change is -4.17%. The half-maximal activity concentration (AC50) under setting [1] was 6.51 µM [falling, single point].

For `COc1ccc2c(c1OC)C[N+]1([O-])CCc3cc4c(cc3C1C2)OCO4` (stereo not drawn), the cell number change was 9.49%. For the same compound, under setting [1], the AC50 was 5.17 µM [rising, full curve, poor fit]. Take `O=C(CN1CCC(O)(c2ccc3c(c2)OCO3)CC1)OC1CCCCC1`: the cell number change was found to be 17.8%. Under setting [2], the AC50 was 0.651 µM [falling, partial curve]. Turning to `CCCn1c(N)c(C(=O)CSc2nc3ncc(Cl)cc3[nH]2)c(=O)n(C)c1=O`, the cell number change stood at 24.5%. Besides, the AC50 under setting [1] is 0.164 µM [falling, full curve, poor fit].

As to `CCN(CC)c1ccc(Nc2cc3n(c(=O)n2)CCc2cc(OC)c(OC)cc2-3)cc1`, the cell number change is 5.56%. For `CC(C)(C)C(=O)O/N=C(\N)c1ccc([N+](=O)[O-])s1`, the cell number change is -17.3%. Moreover, the half-maximal activity concentration (AC50) under setting [1] was 25.9 µM [falling, single point]. Regarding `O=C1CN2NC(=S)N(c3ccc(Cl)cc3)C2=CN1c1ccc(Cl)cc1`, the cell number change was -6.37%. For the same compound, the half-maximal activity concentration (AC50) under setting [1] was 23.1 µM [falling, single point]. For `Cn1c(C(=O)OCC(=O)NCc2ccc(F)cc2)cc2occc21`, the cell number change is 63%. Also, the concentration at half-maximal activity (AC50) under setting [2] was 4.11 µM [rising, partial curve, poor fit].

For the compound `COc1ccc(CCn2c(N)cc(=O)[nH]c2=S)cc1OC`, the AC50 under setting [2] was 6.51 µM [rising, single point] and the AC50 under setting [1] was 6.51 µM [rising, single point]. Turning to `O=C(COC(=O)c1n[nH]c2ccccc12)NC(=O)NC12CC3CC(CC(C3)C1)C2`, the cell number change is -34%. Besides, under setting [2], the half-maximal activity concentration (AC50) was 0.58 µM [falling, full curve]. Turning to `Cc1ccccc1NC(=O)Cn1nc(C(F)(F)F)cc1C1CC1`, the AC50 by setting is: under setting [2], 0.184 µM [rising, partial curve]; under setting [1], 0.411 µM [rising, full curve]. Regarding `CC(=O)C1=C(O)CC(c2ccccc2)CC1=NCCc1c(C)[nH]c2ccc(C)cc12` (stereo not drawn), the cell number change came to 1.83%.

Consider `Cc1ccc(CN(CC(=O)NCCc2ccccc2)C(=O)c2csnn2)cc1`, for which the cell number change is 19.1%. In addition, the AC50 under setting [1] was 6.51 µM [falling, single point]. As to `COc1ccc(C(CNC(=O)CCNC(=O)c2ccc(Br)cc2)N2CCOCC2)cc1` (stereo not drawn), the cell number change was 36.6%. Besides, the concentration at half-maximal activity (AC50) under setting [2] was 11.6 µM [rising, partial curve]. Also, the AC50 under setting [1] was 1.16 µM [rising, partial curve]. On to `CCOCc1c(C(=O)NC2CCCCCC2)oc2ccccc12`, for which the cell number change came to 102%. Also, under setting [2], the AC50 was 13 µM [rising, partial curve, poor fit].

Consider `Cc1sc2ncn(CC(=O)Nc3ccccc3F)c(=O)c2c1-c1ccccc1`, for which the cell number change was determined as 13.2%. `CC(Oc1ccc(Br)cc1)C(=O)N1CCC(C(N)=O)CC1` (stereo not drawn): the cell number change was -27.1%. Further, under setting [1], the concentration at half-maximal activity (AC50) was 14.6 µM [falling, single point]. For the compound `CCN1CCN(C(=O)CN(c2ccccc2C)S(C)(=O)=O)CC1`, the cell number change was -15.6%. Under setting [1], the concentration at half-maximal activity (AC50) was 6.51 µM [falling, single point]. As to `CCN(CC)C(=O)CSC1c2ccccc2C(=O)N1c1ccccc1` (stereo not drawn), the cell number change is -20.7%.

As for `Cc1c(Cc2ccccc2)c(=O)oc2cc(OCC(N)=O)ccc12`, the cell number change is -11.9%. Under setting [2], the AC50 was 0.00461 µM [falling, partial curve, poor fit].

As to `Cn1cc(Br)c(C(=O)Nc2nccs2)n1`, under setting [1], the AC50 was 2.91 µM [rising, single point].

With `CCOC(=O)CSc1nnc2c(n1)C1(C)CCC2C1(C)C` (stereo not drawn), the cell number change was determined as 33.9%. Further, under setting [2], the AC50 was 1.3 µM [rising, full curve, poor fit]. The concentration at half-maximal activity (AC50) under setting [1] is 5.8 µM [rising, full curve]. Take `Cc1coc2cc3oc(=O)c(CCC(=O)NCCCN4CCCC4=O)c(C)c3cc12`: the cell number change is -10.8%. For the same compound, the AC50 under setting [1] is 3.66 µM [falling, partial curve, poor fit]. Take `CCOC(=O)c1ccc(NC(=O)CSc2n[nH]c(-c3ccncc3)n2)cc1`: the AC50 under setting [1] was 6.51 µM [rising, single point]. As for `Clc1ccc(-c2cn3cccnc3n2)cc1Cl`, the cell number change was found to be 36.4%. Further, the AC50 under setting [2] was 20.6 µM [rising, single point]. Besides, the half-maximal activity concentration (AC50) under setting [1] was 1.46 µM [rising, partial curve, poor fit]. In the case of `Cc1ccc(C(=O)N(Cc2ccc3c(c2)OCO3)Cc2nc3ccccc3c(=O)[nH]2)cc1`, the cell number change was -2.39%. Further, under setting [1], the AC50 is 18.4 µM [rising, single point].

Turning to `Cc1oc2ccc(OCc3ccc(Cl)cc3)cc2c1C(=O)O`, the cell number change was -4.48%. Regarding `CC(=O)C1=C(C)NC(=O)NC1c1ccc2c(c1)OCO2` (stereo not drawn), the concentration at half-maximal activity (AC50) under setting [2] was 3.26 µM [falling, single point]. With `CC(Sc1nnc(-c2ccco2)n1C)C(=O)N(C)C1CCCCC1` (stereo not drawn), the cell number change is -7.82%. Moreover, the AC50 under setting [2] was 0.231 µM [falling, full curve, poor fit]. For the same compound, the half-maximal activity concentration (AC50) under setting [1] is 0.291 µM [falling, full curve]. On to `CC(=O)c1sc(NC(=O)CCN2C(=O)c3ccccc3C2=O)nc1C`, for which the cell number change is -30.8%. As to `COc1cc(-c2nnc(NC(=O)c3ccc(S(=O)(=O)N4CCOCC4)cc3)o2)cc(OC)c1OC`, the cell number change was determined as 15.7%. Besides, under setting [1], the AC50 was 0.13 µM [rising, full curve, poor fit]. Take `Cc1ccc(NC(=O)C(C)Sc2nc3nc(C)cc(C)n3n2)cc1` (stereo not drawn): the cell number change was 8.67%. Moreover, the concentration at half-maximal activity (AC50) under setting [1] is 23.1 µM [falling, partial curve, poor fit]. Take `Cc1n[nH]c(=O)c2c(NC(=O)COC(=O)COc3cccc(Br)c3)oc(C)c12`: the cell number change is -2.56%. Besides, the half-maximal activity concentration (AC50) under setting [1] was 3.26 µM [rising, single point]. `COc1ccc(S(=O)(=O)N2C3CCC2CC(NC(=O)C2CC2)C3)cc1` (stereo not drawn): the cell number change is 10.7%. Moreover, under setting [1], the AC50 was 0.00461 µM [falling, full curve, poor fit]. Regarding `c1ccc2nc3ccccc3nc2c1`, the cell number change was -7.98%. Besides, the AC50 under setting [1] is 1.84 µM [rising, partial curve].

`COc1ccc(C(=O)Nc2cccc(C(C)=O)c2)c(OC)c1OC`: under setting [1], the half-maximal activity concentration (AC50) was 0.58 µM [rising, single point]. In the case of `CC(=O)c1ccc(NC(=O)c2noc(C)c2[N+](=O)[O-])cc1`, the cell number change worked out at 12.7%. Also, the AC50 under setting [1] is 5.17 µM [rising, single point]. `CN(C)c1ccc(C(=O)NCCCSc2ccccc2)cc1`: the cell number change is -8.8%. As for `CC(Sc1nnc(C2CC2)n1N)C(=O)NC1CCCCC1C` (stereo not drawn), the cell number change is -41.1%. The AC50 under setting [2] was 16.4 µM [falling, partial curve, poor fit].

With `COCCCNC(=O)CSc1ccsc1[N+](=O)[O-]`, the cell number change was -16.8%. For the compound `O=C(CCN1C(=O)C2C3CCC(C3)C2C1=O)Nc1ccc(Cl)cc1Cl` (stereo not drawn), the cell number change was -10.1%. For `Cc1cc(C)n(S(=O)(=O)/C=C/c2ccccc2)n1`, the cell number change is -36.8%. The AC50 under setting [2] was 1.46 µM [falling, full curve, poor fit]. In addition, the AC50 under setting [1] is 5.8 µM [falling, partial curve]. For the compound `COc1ccc(S(=O)(=O)NCC(=O)N(Cc2ccco2)C(C(=O)NC(C)(C)C)C(C)C)cc1` (stereo not drawn), the cell number change was -16.7%. Consider `CN(Cc1ccc(Br)cc1)CC(O)COc1cccc(Br)c1` (stereo not drawn), for which the cell number change is -6.3%. Moreover, the AC50 under setting [1] is 29.1 µM [falling, partial curve, poor fit]. For the compound `Cc1nn(CC(=O)N(C)C2(C#N)CCCCC2)c(C)c1[N+](=O)[O-]`, the cell number change turned out to be 7.91%. Further, the AC50 under setting [1] was 0.731 µM [rising, partial curve, poor fit]. As to `COc1ccccc1NC(=O)CCNS(=O)(=O)c1ccc2c(c1)CCN2C(C)=O`, the cell number change is -7.25%. Also, under setting [2], the AC50 was 2.31 µM [falling, partial curve]. In addition, under setting [1], the concentration at half-maximal activity (AC50) was 20.6 µM [falling, single point].

Turning to `Cc1ccc(S(=O)(=O)N(C)C)cc1NC(=O)COC(=O)CSc1ccccc1`, the cell number change stood at 11.5%. Moreover, the AC50 under setting [1] is 11.6 µM [rising, partial curve, poor fit].

In the case of `O=C(CNC(=O)c1ccc(Cl)cc1)OC1CCOC1=O` (stereo not drawn), the cell number change was -25.4%. Also, the half-maximal activity concentration (AC50) under setting [2] is 4.61 µM [falling, full curve, poor fit]. The AC50 under setting [1] is 4.11 µM [falling, full curve].

`O=C(O)CCN(Cc1ccccc1)S(=O)(=O)c1ccc(Cl)cc1F`: the cell number change is -46.5%.

As to `Cc1ccc(S(=O)(=O)Oc2ccc(/C=C(/NC(=O)c3ccccc3)C(=O)NCCC(=O)O)cc2)cc1`, the cell number change was -20.4%. Also, under setting [1], the AC50 was 3.66 µM [falling, full curve].
